Test results: PubChem BioAssay AID2685 (National Center for Advancing Translational Sciences (NCATS), 2010)
Some of the results follow. These are further read-outs of the screen, such as a control signal, another cell line or another target. No call is given for them. The list favours compounds with an active or inconclusive main result. Potencies come from curve fits of mixed quality, noted in brackets.

Assay: qHTS Assay for Lipid Storage Modulators in Drosophila S3 Cells;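 on cell number change: cells counted by Cell Tracker Red CMTPX staining in the red channel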
Conditions: BODIPY lipid droplet fluorescence, 18-24 h; for cell number change: measured here: cell count max response, cells fed with added oleic acid
Method in brief: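 Laser-scanning cytometry quantifies lipid droplet accumulation (500–530 nm total intensity; droplet/cell object ratio) in oleic acid-fed (400 uM added) Drosophila S3 cells treated with a concentration series. 20 uM Triacsin C defined 100% inhibition.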

[1] = measured here: cell number channel AC50, cells fed with added oleic acid
[2] = measured here: lipid fluorescence (Fed channel) AC50, cells fed with added oleic acid

| SMILES | cell number change [%] | AC50 [1] | AC50 [2] |
| --- | --- | --- | --- |
| CCOc1ccc(S(=O)(=O)N2CCN(CC)CC2)cc1NC(=O)c1ccccc1F | -34.2 | 29.1 µM [falling, partial curve, poor fit] | – |
| O=C(NCC1CCN(Cc2ccccc2F)CC1)Nc1cc(F)ccc1F | -20.8 | – | – |
| Cc1nn(CC(=O)N2CCN(c3cccc(C(F)(F)F)c3)CC2)c(=O)c2cccn12 | – | – | 6.51 µM [falling, single point] |
| S=C(Nc1ccc(Cc2ccncc2)cc1)Nc1cccc(Cl)c1 | 38.6 | 5.17 µM [rising, full curve, poor fit] | – |
| O=C(COc1ccc(Cl)cc1)c1ccc(O)cc1O | -5.39 | – | – |
| O=C(Nc1ccc(NC(=O)c2ccccc2)nc1)c1ccncc1 | -27.6 | – | 6.51 µM [falling, single point] |
| Oc1ccc(C2C[C@H]3CC[C@@H]2C3)cc1O (stereo not given in full) | -23.6 | – | – |
| Cc1ccccc1NC(=O)Cc1nc(CCl)cs1 | 18.2 | – | 18.4 µM [rising, single point] |
| Cc1ccc(OCc2cc(C(=O)N3CCc4sccc4C3)no2)cc1C | -2.02 | – | 29.1 µM [rising, single point] |
| OC(COc1ccc(Cl)cc1Cl)CN1CCc2ccccc2C1 (stereo not given) | 12.4 | – | – |
| Cc1ccc(S(=O)(=O)N2CCN(C(=O)c3cc(C4CC4)nc4c3cnn4C(C)C)CC2)cc1 | -43 | 32.6 µM [falling, single point] | 2.31 µM [falling, partial curve] |
| Cn1c(CSc2nc3ccc(Br)cc3[nH]2)nc2ccccc21 | 0.0604 | – | 0.291 µM [rising, full curve, poor fit] |
| NC(=O)C1CCCN(C(=O)c2ccc3oc(Cc4ccc(Cl)cc4)nc3c2)C1 (stereo not given) | 2.09 | – | 16.4 µM [rising, single point] |
| CC1C(=O)N2CCCc3cc(NC(=O)COc4ccc(Cl)cc4)cc1c32 (stereo not given) | – | 1.03 µM [rising, partial curve] | 0.411 µM [rising, full curve, poor fit] |
| Cc1cc(NC(=O)c2cc(-c3cccs3)nc3ccccc23)no1 | 43.1 | 18.4 µM [rising, single point] | – |
| CS(=O)(=O)N1CCC(C(=O)c2cccc(Cl)c2)CC1 | -0.242 | – | – |
| CC(=O)N1CCc2cc(S(=O)(=O)Nc3ccccc3N3CCN(C)CC3)ccc21 | – | 4.61 µM [falling, single point] | 3.26 µM [rising, partial curve] |
| CCOC(=O)c1cc2ccccc2n1CCN(CC)CC | 15 | – | 29.1 µM [falling, single point] |
| Cc1cccc2c(=O)n3c(nc12)CCCCC3 | -1.16 | – | – |
| CCOc1ccc(OCC)c(NC(=O)Nc2ccc3c(c2)N(C)C(=O)CS3)c1 | 11.8 | 0.651 µM [rising, partial curve, poor fit] | 1.64 µM [rising, partial curve] |
| O=c1cc(CO)occ1OCc1c(F)cccc1Cl | -14.7 | 6.51 µM [rising, single point] | – |

Single records, from the list above.
`Cc1cc(NC(=O)c2cc(-c3cccs3)nc3ccccc23)no1` is listed as cell number change [%]: 43.1; AC50 [1]: 18.4 µM [rising, single point]
`S=C(Nc1ccc(Cc2ccncc2)cc1)Nc1cccc(Cl)c1` is listed as cell number change [%]: 38.6; AC50 [1]: 5.17 µM [rising, full curve, poor fit]
`Cc1ccc(OCc2cc(C(=O)N3CCc4sccc4C3)no2)cc1C` is listed as cell number change [%]: -2.02; AC50 [2]: 29.1 µM [rising, single point]
`Oc1ccc(C2C[C@H]3CC[C@@H]2C3)cc1O` (stereo not given in full) is listed as cell number change [%]: -23.6

The results go on.

| SMILES | cell number change [%] | AC50 [1] | AC50 [2] |
| --- | --- | --- | --- |
| CC(=O)N1CCCc2cc(S(=O)(=O)Nc3ccccc3C)ccc21 | 9.68 | – | 0.326 µM [rising, full curve, poor fit] |
| CCOC(=O)N1CCN(CCC(=O)Nc2ccc(F)c(F)c2)CC1 | 1.01 | – | 6.51 µM [rising, single point] |
| O=C(O)COc1ccccc1/C=N/NC(=O)c1cc(-c2ccc(Cl)cc2)nc2ccccc12 | 8.72 | – | 5.17 µM [rising, partial curve] |
| O=C(CSc1ccsc1[N+](=O)[O-])N1CCN(c2ccccc2)CC1 | -3.3 | – | 0.92 µM [rising, full curve, poor fit] |
| CCc1ccc(S(=O)(=O)N/N=C(/C)c2ccncc2)cc1 | 5.49 | – | 1.84 µM [rising, partial curve, poor fit] |
| COc1ccc(/C=N/NC(=O)COc2cccc3ccccc23)c(C(=O)O)c1OC | -21.1 | – | 0.731 µM [falling, full curve, poor fit] |
| COc1ccc(C)cc1NC(=O)c1cc2ccccc2cc1OCC(=O)NCc1ccco1 | -45.3 | – | – |
| CCOC(=O)CSc1nnc(CSc2nc3sc4c(c3c(=O)[nH]2)CCC4)n1-c1ccccc1 | -79 | 1.84 µM [falling, partial curve] | 0.651 µM [falling, single point] |
| COc1ccc(CC(=O)N/N=C/c2ccc(-c3cccc(C(=O)O)c3)o2)cc1OC | – | – | 0.103 µM [falling, full curve, poor fit] |
| C=CCn1cc(C(=O)N2CCN(CC)CC2)c(=O)c2cc(S(=O)(=O)N(CC)CC)ccc21 | 38.3 | 32.6 µM [rising, single point] | – |
| CCOc1ccccc1NC(=O)Nc1ccncc1 | – | – | 6.31 µM [falling, single point] |
| O=C(O)c1cccc(S(=O)(=O)Nc2ccccc2Cc2ccccc2)c1 | 6.76 | – | 29.1 µM [falling, single point] |
| O=C(CCSc1ccccn1)c1ccccc1 | 42.3 | 1.03 µM [rising, full curve] | 1.46 µM [rising, partial curve, poor fit] |
| COc1ccc(-c2c(NC(=O)c3ccco3)oc3ccccc3c2=O)cc1OC | 18.9 | – | 29.1 µM [rising, single point] |
| COc1ccc2[nH]c(C(=O)NCc3ccccc3)c(C)c2c1 | 26.1 | 2.31 µM [rising, full curve, poor fit] | – |
| COc1cc(/C=C/C(=O)O)ccc1OS(=O)(=O)c1cc(Br)ccc1C | -12.8 | – | 13 µM [rising, partial curve, poor fit] |
| Oc1ccc(Nc2nnc(-c3ccc(O)cc3)c3ccccc23)cc1 | 6.85 | – | – |
| CCOC(=O)c1c(C)[nH]c(C(=O)C(C)Sc2ccc(Cl)cc2)c1C (stereo not given) | -19.2 | – | 0.146 µM [falling, full curve] |
| Cc1ccccc1NC(=S)N=Nc1c(O)n(C)c2ccc(S(=O)(=O)N3CCOCC3)cc12 | -22 | – | 2.06 µM [falling, partial curve, poor fit] |
| CCOC(=O)COc1cc(OCC(=O)OCC)c2c3c(c(=O)oc2c1)CCCC3 | 12.6 | – | – |
| N#C/C(=C\C1CC2C=CC1C2)c1nc2ccccc2[nH]1 (stereo not given) | 32.2 | 0.184 µM [rising, full curve, poor fit] | – |

| SMILES | cell number change [%] | AC50 [1] | AC50 [2] |
| --- | --- | --- | --- |
| COc1ccc(CN2CCN(C(=O)c3ccc(-c4ccccc4)cc3)CC2)c(OC)c1OC | -11.7 | – | 6.51 µM [falling, single point] |
| CC1CCC(=C(C#N)c2nc(-c3cc4ccccc4oc3=O)cs2)CC1 (stereo not given) | – | – | 0.461 µM [rising, single point] |
| COc1ccc(OCC(=O)O/N=C(\N)Cc2ccc(Cl)cc2Cl)cc1 | – | – | 29.1 µM [rising, single point] |
| OC(CC1CC12c1ccccc1-c1ncccc12)(c1ccccc1)c1ccccc1 (stereo not given) | -36.4 | 1.84 µM [rising, partial curve] | 1.84 µM [rising, full curve] |
| CC(=O)c1c(C)[nH]c(C(=O)COc2ccc3ccc(=O)oc3c2)c1C | -11.8 | – | 29.1 µM [falling, single point] |
| COc1ccc(CCN(C)C(=O)CSc2ncnc3sccc23)cc1OC | 55.3 | 7.31 µM [rising, partial curve] | – |
| O=C(NC(=O)c1c(F)cccc1F)Nc1ccccc1SC(F)F | 31.5 | 0.116 µM [rising, full curve, poor fit] | 4.11 µM [rising, single point] |
| CCCc1c(C(=O)Nc2cc(C(C)(C)C)on2)cnn1-c1ccccc1 | -1.98 | – | 0.092 µM [rising, full curve, poor fit] |
| O=C(O)c1ccccc1Nc1cc(Cl)c2nonc2c1[N+](=O)[O-] | -8.01 | – | – |
| CC(NC(=O)c1ccc(F)cc1Cl)C1CC2CCC1C2 (stereo not given) | 12.2 | – | – |
| Cc1ccc(NC(=O)C(C)[n+]2ccccc2)cc1[N+](=O)[O-] (stereo not given) | -11.2 | – | 18.4 µM [rising, single point] |
| Cc1cccc(-c2noc(CN(C)C(=O)COc3ccccc3)n2)c1 | -3.59 | – | 29.1 µM [rising, partial curve, poor fit] |
| CS(=O)(=O)c1nc(-c2ccccc2)cc(C(F)(F)F)n1 | -75.2 | 3.26 µM [falling, full curve] | 3.26 µM [falling, full curve] |
| Cc1ccc(C(=O)NCc2ccco2)cc1S(=O)(=O)Nc1cccc(Cl)c1 | 13.2 | – | 6.51 µM [falling, single point] |
| Oc1ccccc1-c1nnc(-c2ccc(C(F)(F)F)cc2)o1 | 83.8 | 18.4 µM [rising, single point] | – |
| NNC(=O)c1sccc1OCc1cccc(C(F)(F)F)c1 | – | – | 6.51 µM [rising, single point] |
| CCN(CC)c1ccc(/C=N/NC(=O)Nc2nonc2N)cc1 | -77.8 | 16.4 µM [falling, single point] | 23.1 µM [falling, partial curve] |
| COC(=O)Cn1c(CN2CCc3ccccc3C2)nc2c1c(=O)n(C)c(=O)n2C | -118 | 29.1 µM [falling, single point] | 23.1 µM [falling, single point] |
| CC(C)(C)NCc1cc(Cl)ccc1OCc1ccccc1F | -23.3 | – | 29.1 µM [rising, single point] |
| O=C(N/N=C/C=C\c1cccc([N+](=O)[O-])c1)c1cccnc1 | 2.56 | – | – |
